Measured values reported in patent publication US20020119178A1 (priority 2001, published 2002).
Some of these results come from one statement about several compounds together.

Test system: human saphenous vein smooth muscle cells (HSV-SMC)
Type: cell-based
Conditions: drug immobilized with ethanol onto bromobenzenediazonium coated 316L discs; elution in DMEM + 20% FBS over 10 days
Protocol: A proliferation assay was performed using human saphenous vein smooth muscle cells (HSV-SMC) with cells at passage 3-5. HSV-SMC were established in 96-well plates for 24 hours then serum starved for 48 hours. […] A positive control (100%) was set for cells exposed to DMEM supplemented with 20% FBS only while a negative control (0%) was set for cells exposed to only unsupplemented DMEM. Cells were stimulated for 72 hours with the anti-proliferative drug containing culture media. A solution of [3-(4,5-dimethylthiazol-2-yl)-5-(3-carboxymethoxyphenyl)-2-(4-sulfophenyl)-2H-tetrazolium](MTS, a cell proliferation marker) is then added onto the cells for 3 hours. Absorbance at 490 nm is recorded using a 96-well plate reader.

Structure (SMILES) | period of time of effective inhibition of HSV-SMC proliferation by sustained release from discs
COc1cccc2c1C(=O)c1c(O)c3c(c(O)c1C2=O)C[C@@](O)(C(=O)CO)C[C@@H]3O[C@H]1C[C@H](N)[C@H](O)[C@H](C)O1 [doxorubicin] | up to 10 days
CC(=O)O[C@H]1C(=O)[C@@]2(C)[C@H]([C@H](OC(=O)c3ccccc3)[C@]3(O)C[C@H](OC(=O)[C@H](O)[C@@H](NC(=O)c4ccccc4)c4ccccc4)C(C)=C1C3(C)C)[C@]1(OC(C)=O)CO[C@@H]1C[C@@H]2O [paclitaxel] | up to 10 days
